Laboratory results as given in publication PMC10754121.
These are yes or no findings as the source states them, for the method shown. Binding seen in cells or lysates may run through a third protein. Some entries that bind do so weakly or less than the wild type. Tags and fused reporters may be left off the sequences shown.

T1: HA-CARM1 (UniProt Q86X55)
T1 sequence: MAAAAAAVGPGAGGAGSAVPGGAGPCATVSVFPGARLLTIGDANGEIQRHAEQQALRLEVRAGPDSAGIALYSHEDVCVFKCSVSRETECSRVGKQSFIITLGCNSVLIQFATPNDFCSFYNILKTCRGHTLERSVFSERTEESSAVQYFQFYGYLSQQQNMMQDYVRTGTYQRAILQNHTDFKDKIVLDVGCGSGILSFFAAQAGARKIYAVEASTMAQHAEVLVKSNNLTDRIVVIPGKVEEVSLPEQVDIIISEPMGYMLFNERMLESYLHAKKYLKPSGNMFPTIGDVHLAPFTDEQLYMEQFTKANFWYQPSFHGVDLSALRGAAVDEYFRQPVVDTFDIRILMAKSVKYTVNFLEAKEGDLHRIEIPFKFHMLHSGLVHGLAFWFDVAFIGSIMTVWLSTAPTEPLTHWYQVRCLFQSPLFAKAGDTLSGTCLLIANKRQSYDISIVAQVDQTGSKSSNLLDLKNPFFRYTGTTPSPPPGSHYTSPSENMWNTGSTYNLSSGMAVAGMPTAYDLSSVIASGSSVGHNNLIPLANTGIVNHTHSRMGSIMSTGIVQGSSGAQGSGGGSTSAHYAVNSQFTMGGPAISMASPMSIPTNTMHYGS


Legend:
[1] = molecular target: ACSL4 WT (expressed in HEK-293T for the co-IP with E3 ligases) (UniProt O60488); experiment: co-IP; ACSL4 WT or ACSL4 R339A enriched from HEK-293T cells, E3 ubiquitin ligase detected
HA-CARM1 = molecular target: T1, HA-CARM1; experiment: co-IP; truncated forms of ACSL4 with CARM1 in HEK-293T cells

binding [1]	binding (HA-CARM1)	Binder
binds		Flag-RNF25 (enzyme, UniProt Q96BH1 1-459) MAASASAAAGEEDWVLPSEVEVLESIYLDELQVIKGNGRTSPWEIYITLHPATAEDQDSQYVCFTLVLQVPAEYPHEVPQISIRNPRGLSDEQIHTILQVLGHVAKAGLGTAMLYELIEKGKEILTDNNIPHGQCVICLYGFQEKEAFTKTPCYHYFHCHCLARYIQHMEQELKAQGQEQEQERQHATTKQKAVGVQCPVCREPLVYDLASLKAAPEPQQPMELYQPSAESLRQQEERKRLYQRQQERGGIIDLEAERNRYFISLQQPPAPAEPESAVDVSKGSQPPSTLAAELSTSPAVQSTLPPPLPVATQHICEKIPGTRSNQQRLGETQKAMLDPPKPSRGPWRQPERRHPKGGECHAPKGTRDTQELPPPEGPLKEPMDLKPEPHSQGVEGPPQEKGPGSWQGPPPRRTRDCVRWERSKGRTPGSSYPRLPRGQGAYRPGTRRESLGLESKDGS
	binds	ACSL4 fragment 2 (103-578 aa) (domain or fragment, UniProt O60488 103-578) SEENEMQPNGKVFKKLILGNYKWMNYLEVNRRVNNFGSGLTALGLKPKNTIAIFCETRAEWMIAAQTCFKYNFPLVTLYATLGKEAVVHGLNESEASYLITSVELLESKLKTALLDISCVKHIIYVDNKAINKAEYPEGFEIHSMQSVEELGSNPENLGIPPSRPTPSDMAIVMYTSGSTGRPKGVMMHHSNLIAGMTGQCERIPGLGPKDTYIGYLPLAHVLELTAEISCFTYGCRIGYSSPLTLSDQSSKIKKGSKGDCTVLKPTLMAAVPEIMDRIYKNVMSKVQEMNYIQKTLFKIGYDYKLEQIKKGYDAPLCNLLLFKKVKALLGGNVRMMLSGGAPLSPQTHRFMNVCFCCPIGQGYGLTESCGAGTVTEVTDYTTGRVGAPLICCEIKLKDWQEGGYTINDKPNPRGEIVIGGQNISMGYFKNEEKTAEDYSVDENGQRWFCTGDIGEFHPDGCLQIIDRKKDLVKLQ
